Results as given in paper doi:10.1101/2022.07.11.499617.
These are yes or no findings as the source states them, for the method shown. Binding can be weak; no strength is given. Where a sequence is shown, tags or fusion partners need not be part of it.

Columns and labels:
[1] = molecular target: cytosolic domain of BAK1 fused with DNA-binding domain (BD-BAK1_CD) (Arabidopsis thaliana); assay: two-hybrid
[2] = molecular target: ERECTA cytosolic domain fused to the DNA binding domain (BD-ER_CD) (Arabidopsis thaliana); assay: two-hybrid

Row | binding [1] | binding [2] | Binder
1 | binds | binds | PUB30 full length fused to the activation domain (AD-PUB30) (enzyme, UniProt Q058P4 1-448) MPMFQPLKRDGLIGFEGGGDGQVLDLDTAVKDGVLGGVNGGGVGVVDEKLDLKKMIKELDLQDIPSVFICPISLEPMQDPVTLCTGQTYERLNIHKWFNLGHLTCPTTMQELWDDTVTPNKTLHHLIYTWFSQKYVLMKKRSEDVQGRAIEILGTLKKAKGQARVHALSELKQIVIAHLMARKTVVEEGGVSVISSLLGPFTSHAVGSEVVAILVSLDLDSDSKSGLMQPAKVSLIVDMLNDGSNETKINCARLIRGLVEEKGFRAELVSSHSLLVGLMRLVKDKRHRNGVSPALRLLKPISVHKQVRSLMVSIGAVPQLVDILPSLDPECLELALFVLDALCTDVEGRVAVKDSANTIPYTVRVLMRVSENCTNYALSILWSVCKLAPEECSPLAVEVGLAAKLLLVIQSGCDAALKQRSAELLKLCSLHYSDTMFISKCKLTRTIQ
2 | binds | binds | PUB31 full length fused to the activation domain (AD-PUB31) (enzyme, UniProt Q9FHN9 1-444) MPMFQPSKNGGFDGHILDLHSAVKDGVLGGGDGKFLVVVTDEKKKLDLKEMISELELPEIPSVFICPISLEPMQDPVTLCTGQTYERSNILKWFNIGHCTCPTTMQELWDDLVTPNKTLHQLIYTWFSQKYVLMKKRSEDVQGRAIEILGTLRKAKGKAKVHALSELKQVVMAHAIAKKTVVDEGGVFVISSLLSPFTSHAVGSEAIAILVNLELDSDSKAGLMQPARVSLMVDMLNDGSIETKINCARLIGRLVEEKGFRAELVSSHSLLVGLMRLVKDRRRRNGVSPALTLLKSVSVHKQVRNLLVRIGAVPQLVDVLPCLDVECLESALFVLDSLCLESEGRIALKDSVNTIPHTVRLLMKVSEKCTNYAISILWSVCKLASEECSSLAVEVGLAAKLLLVIQSGCDPALKQRSAELLKLCSLHYSDSMFISKCKLTRTIQ
